Data reported in article PMC5490264.
These are yes or no findings as the source states them, for the method shown. Binding seen in cells or lysates may run through a third protein. Here binding means that the protein was enriched with, or labelled near, the bait; the list need not be complete.

By UniProt entry, the sequences of proteins in these tests, tags left out.
UniProt Q79NI3: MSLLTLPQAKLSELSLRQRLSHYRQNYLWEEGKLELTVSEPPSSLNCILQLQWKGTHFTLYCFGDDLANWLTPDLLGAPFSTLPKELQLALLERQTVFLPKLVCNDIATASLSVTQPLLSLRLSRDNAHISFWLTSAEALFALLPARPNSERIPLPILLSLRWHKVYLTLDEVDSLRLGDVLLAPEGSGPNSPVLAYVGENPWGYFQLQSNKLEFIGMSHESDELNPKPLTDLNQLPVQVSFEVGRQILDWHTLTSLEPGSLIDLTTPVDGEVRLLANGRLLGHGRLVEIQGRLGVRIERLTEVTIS
UniProt Q01253: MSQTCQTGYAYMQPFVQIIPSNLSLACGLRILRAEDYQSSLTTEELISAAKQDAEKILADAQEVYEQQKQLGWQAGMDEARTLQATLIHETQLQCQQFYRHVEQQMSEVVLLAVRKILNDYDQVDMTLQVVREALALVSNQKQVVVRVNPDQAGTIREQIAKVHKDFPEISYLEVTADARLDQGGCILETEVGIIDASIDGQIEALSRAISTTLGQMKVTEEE

Molecular target: Halo-YscQ (Yersinia enterocolitica) (UniProt Q79NI3)
Assay: affinity purification with mass spectrometry; Halo-tagged bait covalently bound to Magne HaloTag beads from lysate of Y. enterocolitica (otherwise WT strain; non-secreting, 5 mM CaCl2, and secreting, 5 mM EDTA, conditions); HaloTag purification buffer with MgCl2, 2 h at 4 °C; partners eluted at 95 °C in SDS buffer; LC-MS/MS, label-free quantification against the untagged WT control

Substance | binding
Halo-YscQ (from UniProt Q79NI3 1-307) | binds
YscL (from UniProt Q01253 1-223) | binds
